Construct, isoform or probe ends are uncertain for at least one entry. For some of these results: Negatives hold for the conditions tested. Where a protein sequence is shown, tags need not be part of it.
Tests used:
[1] = system: T1, HMGA1b-His6 S2G (Homo sapiens); experiment: competition with a labelled probe; conditions: L-RNA, purified recombinant protein, synthetic backbone, mirror-image nucleic acid; for binding result: competes in the low nanomolar range with dsDNA AT hook
T1 sequence: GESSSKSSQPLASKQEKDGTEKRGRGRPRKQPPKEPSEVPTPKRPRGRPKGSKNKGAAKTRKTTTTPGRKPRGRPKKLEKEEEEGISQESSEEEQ

[2] = system: T1, HMGA1b-His6 S2G (Homo sapiens); experiment: binding assay; conditions: L-RNA, purified recombinant protein, label: 5'-biotin, synthetic backbone, mirror-image nucleic acid

GGCUGAUACGUGGGUGGAUAUGGGGCAGUUCCAUGUGGGUGGUUUCAGCC [NOX-A spiegelmer]
IC50 ([1]; competition with biotin-dsDNA AT hook, 30 nM protein, 140 mM KCl, 0.8 mM MgCl2, poly(dGdC), RT, variant of 122-A1 NOX-A aptamer): 15 nM

GGCUGAUACGUGGGUGGAUAUGGGGCAGUUCCAUGUGGGUGGUUUCAGCC [5'-biotin-NOX-A spiegelmer]
binding result ([2]; Western blot: 3 nM biotin-spiegelmer detects 5 ug blotted HMGA1b, 1 mM Ca/Mg, variant of NOX-A spiegelmer): binds

GCUGAAUGAGGAUCGCAGGGGCGUGGCUGGGGUGGGCGACCGUUCAGC [NOX-f 48 nt spiegelmer]
binding result ([1]; variant of 132-B3 NOX-f 48 nt aptamer): binds

GGCUGAUACGUGGGUGGAUAUGGGGCAGUUCCAUGUGGGUGGUUUCAGCC [NOX-A-3'PEG spiegelmer]
IC50 ([1]; 3'-PEG 2 kDa, competition with biotin-dsDNA AT hook, RT, variant of NOX-A spiegelmer): 15 nM

GGAUCGCAGGGGCGUGGCUGGGGUGGGCGAUCC [NOX-f 33 nt spiegelmer]
binding result ([1]; variant of NOX-f 48 nt spiegelmer): binds

CCGACUUUGGUGGGUGUACCUUGACGGGGUAUAGGUGGGUGCAUAGUCGG [5'-biotin-NOX-A inverse spiegelmer]
binding result ([2]; Western blot: inverse spiegelmer did not recognise HMGA1b, variant of 5'-biotin-NOX-A spiegelmer): no binding

CCGACUUUGGUGGGUGUACCUUGACGGGGUAUAGGUGGGUGCAUAGUCGG [inverse NOX-A control spiegelmer]
IC50 ([1]; no effect up to 0.5 uM, non-specific interaction only above 1 uM, variant of NOX-A spiegelmer): > 500 nM

Reference: US20090192100, “NOVEL USE OF SPIEGELMERS” (published 2009)
